Test results as given in the supplement of paper PMC10849652.
The list shows a part of the results.

Protein sequences, listed by entry. Tags and fused reporters are not part of them. Lines headed by an entry give the natural chain unless they say otherwise; changes in a name come on top.
UniProt Q8WXG6, whole entry, looked up: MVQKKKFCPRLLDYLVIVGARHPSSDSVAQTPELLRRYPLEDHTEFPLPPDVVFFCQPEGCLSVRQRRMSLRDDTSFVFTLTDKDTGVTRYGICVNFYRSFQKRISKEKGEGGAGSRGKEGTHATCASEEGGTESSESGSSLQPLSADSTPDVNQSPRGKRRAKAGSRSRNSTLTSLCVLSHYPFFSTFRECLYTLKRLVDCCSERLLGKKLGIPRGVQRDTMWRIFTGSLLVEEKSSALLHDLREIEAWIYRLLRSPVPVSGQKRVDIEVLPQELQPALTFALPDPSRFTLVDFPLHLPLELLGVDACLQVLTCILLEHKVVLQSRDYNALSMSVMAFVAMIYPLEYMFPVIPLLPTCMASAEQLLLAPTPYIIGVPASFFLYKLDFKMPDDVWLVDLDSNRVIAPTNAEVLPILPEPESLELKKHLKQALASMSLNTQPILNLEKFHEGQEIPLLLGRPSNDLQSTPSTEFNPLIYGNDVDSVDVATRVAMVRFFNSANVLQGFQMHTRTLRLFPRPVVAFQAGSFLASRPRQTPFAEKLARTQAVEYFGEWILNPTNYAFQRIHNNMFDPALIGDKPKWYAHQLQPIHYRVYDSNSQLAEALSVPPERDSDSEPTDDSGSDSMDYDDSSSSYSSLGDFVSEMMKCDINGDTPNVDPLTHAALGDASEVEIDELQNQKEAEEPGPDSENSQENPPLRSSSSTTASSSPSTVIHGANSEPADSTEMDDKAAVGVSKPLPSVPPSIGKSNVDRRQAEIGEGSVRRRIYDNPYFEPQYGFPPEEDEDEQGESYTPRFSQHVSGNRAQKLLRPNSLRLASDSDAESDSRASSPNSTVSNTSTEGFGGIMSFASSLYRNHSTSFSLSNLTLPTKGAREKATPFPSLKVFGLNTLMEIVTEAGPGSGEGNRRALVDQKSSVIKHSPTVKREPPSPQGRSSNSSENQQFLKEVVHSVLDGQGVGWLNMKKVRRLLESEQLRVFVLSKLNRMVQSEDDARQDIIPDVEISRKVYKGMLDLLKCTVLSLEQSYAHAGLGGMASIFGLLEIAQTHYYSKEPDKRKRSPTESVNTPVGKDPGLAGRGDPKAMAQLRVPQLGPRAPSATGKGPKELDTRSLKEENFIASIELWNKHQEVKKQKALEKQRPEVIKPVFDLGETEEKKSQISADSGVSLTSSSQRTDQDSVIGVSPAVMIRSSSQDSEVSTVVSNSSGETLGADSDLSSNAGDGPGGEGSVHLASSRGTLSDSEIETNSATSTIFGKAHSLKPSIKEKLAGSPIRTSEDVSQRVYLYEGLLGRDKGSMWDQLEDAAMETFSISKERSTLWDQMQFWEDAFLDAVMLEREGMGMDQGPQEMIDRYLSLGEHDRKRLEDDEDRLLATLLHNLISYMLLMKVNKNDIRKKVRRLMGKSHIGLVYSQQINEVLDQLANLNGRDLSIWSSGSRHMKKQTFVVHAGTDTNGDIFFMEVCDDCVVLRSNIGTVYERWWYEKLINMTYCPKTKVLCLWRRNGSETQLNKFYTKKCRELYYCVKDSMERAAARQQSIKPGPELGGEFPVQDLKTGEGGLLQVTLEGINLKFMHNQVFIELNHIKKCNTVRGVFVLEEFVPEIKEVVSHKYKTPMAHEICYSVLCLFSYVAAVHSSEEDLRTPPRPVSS
UniProt Q9NU23: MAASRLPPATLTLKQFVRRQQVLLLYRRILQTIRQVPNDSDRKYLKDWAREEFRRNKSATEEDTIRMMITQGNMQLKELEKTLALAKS
UniProt Q96GA3: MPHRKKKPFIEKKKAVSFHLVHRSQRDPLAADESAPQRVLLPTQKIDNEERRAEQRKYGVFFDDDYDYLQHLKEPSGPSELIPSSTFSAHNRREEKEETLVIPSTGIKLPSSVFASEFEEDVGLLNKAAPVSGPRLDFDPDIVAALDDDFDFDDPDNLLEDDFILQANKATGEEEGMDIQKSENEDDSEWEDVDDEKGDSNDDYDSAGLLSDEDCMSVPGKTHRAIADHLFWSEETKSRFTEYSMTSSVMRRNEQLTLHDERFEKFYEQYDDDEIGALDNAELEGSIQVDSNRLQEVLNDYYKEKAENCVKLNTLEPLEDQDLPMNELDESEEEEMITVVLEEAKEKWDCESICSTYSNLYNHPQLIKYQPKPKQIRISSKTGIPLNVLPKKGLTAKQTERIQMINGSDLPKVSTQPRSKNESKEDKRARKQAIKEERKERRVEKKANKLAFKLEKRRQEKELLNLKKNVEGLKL
UniProt O75608: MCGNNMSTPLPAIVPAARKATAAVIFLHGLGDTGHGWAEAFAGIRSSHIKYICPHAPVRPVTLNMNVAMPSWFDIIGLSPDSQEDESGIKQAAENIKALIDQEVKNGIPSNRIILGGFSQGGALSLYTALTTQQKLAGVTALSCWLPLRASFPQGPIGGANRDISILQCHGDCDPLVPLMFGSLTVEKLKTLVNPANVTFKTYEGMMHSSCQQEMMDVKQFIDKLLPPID
UniProt O60476: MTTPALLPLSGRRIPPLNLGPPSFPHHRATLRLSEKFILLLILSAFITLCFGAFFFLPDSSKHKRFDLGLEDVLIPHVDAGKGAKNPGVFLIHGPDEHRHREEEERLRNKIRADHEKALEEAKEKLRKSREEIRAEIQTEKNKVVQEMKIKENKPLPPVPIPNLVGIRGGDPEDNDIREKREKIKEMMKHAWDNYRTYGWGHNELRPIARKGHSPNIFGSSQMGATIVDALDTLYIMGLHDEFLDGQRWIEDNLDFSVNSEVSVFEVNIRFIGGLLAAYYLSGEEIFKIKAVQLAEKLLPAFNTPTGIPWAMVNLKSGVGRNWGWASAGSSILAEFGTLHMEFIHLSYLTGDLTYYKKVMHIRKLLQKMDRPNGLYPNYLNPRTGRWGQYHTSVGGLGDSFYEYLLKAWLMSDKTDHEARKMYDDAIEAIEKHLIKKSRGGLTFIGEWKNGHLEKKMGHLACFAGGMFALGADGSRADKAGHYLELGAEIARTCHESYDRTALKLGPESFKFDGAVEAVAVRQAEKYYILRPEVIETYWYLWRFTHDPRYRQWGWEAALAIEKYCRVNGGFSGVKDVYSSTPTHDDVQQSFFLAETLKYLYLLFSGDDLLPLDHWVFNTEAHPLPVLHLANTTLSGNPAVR
UniProt Q13257, whole entry, looked up: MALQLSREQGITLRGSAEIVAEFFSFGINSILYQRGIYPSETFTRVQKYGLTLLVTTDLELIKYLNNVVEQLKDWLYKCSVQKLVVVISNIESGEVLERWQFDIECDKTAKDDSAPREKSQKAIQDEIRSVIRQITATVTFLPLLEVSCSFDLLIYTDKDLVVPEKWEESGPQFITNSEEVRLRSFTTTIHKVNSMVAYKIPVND
UniProt P27361, whole entry, looked up: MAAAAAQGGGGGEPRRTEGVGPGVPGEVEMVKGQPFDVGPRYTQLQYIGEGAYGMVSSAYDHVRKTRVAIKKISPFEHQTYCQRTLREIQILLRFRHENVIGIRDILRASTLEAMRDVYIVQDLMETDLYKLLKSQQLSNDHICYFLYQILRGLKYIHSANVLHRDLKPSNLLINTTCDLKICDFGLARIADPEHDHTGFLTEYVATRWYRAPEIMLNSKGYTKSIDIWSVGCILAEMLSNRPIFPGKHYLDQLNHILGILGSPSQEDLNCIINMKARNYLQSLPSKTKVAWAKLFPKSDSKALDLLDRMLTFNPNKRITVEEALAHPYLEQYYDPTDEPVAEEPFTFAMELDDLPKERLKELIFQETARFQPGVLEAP
UniProt Q8IWC1: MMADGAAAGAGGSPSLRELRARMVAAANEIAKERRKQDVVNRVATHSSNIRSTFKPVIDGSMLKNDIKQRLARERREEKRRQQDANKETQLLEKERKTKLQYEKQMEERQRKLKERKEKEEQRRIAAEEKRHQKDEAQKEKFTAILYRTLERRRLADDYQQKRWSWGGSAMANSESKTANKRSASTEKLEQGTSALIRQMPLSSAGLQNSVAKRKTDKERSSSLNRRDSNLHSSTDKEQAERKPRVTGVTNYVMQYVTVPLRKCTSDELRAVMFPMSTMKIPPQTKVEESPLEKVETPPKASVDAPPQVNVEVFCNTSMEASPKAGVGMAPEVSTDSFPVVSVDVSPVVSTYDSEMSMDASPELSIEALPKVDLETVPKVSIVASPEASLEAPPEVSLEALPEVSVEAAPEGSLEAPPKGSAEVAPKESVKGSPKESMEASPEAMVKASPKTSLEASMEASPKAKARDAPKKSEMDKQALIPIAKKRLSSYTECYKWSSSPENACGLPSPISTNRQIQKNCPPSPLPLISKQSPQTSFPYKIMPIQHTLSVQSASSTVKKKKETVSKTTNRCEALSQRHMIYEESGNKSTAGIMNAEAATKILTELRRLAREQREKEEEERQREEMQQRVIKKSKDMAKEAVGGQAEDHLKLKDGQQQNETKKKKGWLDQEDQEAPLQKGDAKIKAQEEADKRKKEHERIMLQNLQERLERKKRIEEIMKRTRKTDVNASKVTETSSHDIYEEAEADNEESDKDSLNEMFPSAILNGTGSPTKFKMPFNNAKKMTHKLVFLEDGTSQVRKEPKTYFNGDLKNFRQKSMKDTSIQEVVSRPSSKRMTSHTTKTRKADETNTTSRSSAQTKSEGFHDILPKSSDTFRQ
UniProt Q13163: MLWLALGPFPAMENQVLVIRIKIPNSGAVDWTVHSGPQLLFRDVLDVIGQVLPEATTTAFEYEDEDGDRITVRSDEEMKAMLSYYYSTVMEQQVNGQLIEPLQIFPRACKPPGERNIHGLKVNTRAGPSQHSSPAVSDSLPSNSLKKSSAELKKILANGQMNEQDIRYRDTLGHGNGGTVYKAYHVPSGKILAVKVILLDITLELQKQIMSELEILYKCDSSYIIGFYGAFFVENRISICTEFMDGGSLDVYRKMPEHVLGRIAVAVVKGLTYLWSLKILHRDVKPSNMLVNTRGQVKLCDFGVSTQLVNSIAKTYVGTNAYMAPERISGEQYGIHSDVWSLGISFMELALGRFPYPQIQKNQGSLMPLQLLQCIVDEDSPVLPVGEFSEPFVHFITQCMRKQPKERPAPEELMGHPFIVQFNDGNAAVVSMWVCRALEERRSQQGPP
UniProt Q96A72, whole entry, looked up: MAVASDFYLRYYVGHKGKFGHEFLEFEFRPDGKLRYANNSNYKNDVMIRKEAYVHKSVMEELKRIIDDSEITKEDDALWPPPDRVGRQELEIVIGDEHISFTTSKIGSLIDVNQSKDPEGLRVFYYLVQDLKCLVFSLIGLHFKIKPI
UniProt Q7Z3D4: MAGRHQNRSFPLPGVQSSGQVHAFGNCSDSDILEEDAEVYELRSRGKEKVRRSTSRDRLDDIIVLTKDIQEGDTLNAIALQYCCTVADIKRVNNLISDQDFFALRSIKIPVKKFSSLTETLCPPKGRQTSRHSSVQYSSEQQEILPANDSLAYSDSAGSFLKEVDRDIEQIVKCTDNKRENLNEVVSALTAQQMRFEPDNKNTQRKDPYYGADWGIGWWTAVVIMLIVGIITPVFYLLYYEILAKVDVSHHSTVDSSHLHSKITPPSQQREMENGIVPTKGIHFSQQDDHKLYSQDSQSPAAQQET
UniProt P55145: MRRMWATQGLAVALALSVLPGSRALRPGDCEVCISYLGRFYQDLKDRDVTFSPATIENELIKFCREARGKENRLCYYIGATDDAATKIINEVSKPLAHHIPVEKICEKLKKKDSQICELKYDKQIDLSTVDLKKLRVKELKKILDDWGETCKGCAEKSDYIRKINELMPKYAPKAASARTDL
UniProt Q9Y250: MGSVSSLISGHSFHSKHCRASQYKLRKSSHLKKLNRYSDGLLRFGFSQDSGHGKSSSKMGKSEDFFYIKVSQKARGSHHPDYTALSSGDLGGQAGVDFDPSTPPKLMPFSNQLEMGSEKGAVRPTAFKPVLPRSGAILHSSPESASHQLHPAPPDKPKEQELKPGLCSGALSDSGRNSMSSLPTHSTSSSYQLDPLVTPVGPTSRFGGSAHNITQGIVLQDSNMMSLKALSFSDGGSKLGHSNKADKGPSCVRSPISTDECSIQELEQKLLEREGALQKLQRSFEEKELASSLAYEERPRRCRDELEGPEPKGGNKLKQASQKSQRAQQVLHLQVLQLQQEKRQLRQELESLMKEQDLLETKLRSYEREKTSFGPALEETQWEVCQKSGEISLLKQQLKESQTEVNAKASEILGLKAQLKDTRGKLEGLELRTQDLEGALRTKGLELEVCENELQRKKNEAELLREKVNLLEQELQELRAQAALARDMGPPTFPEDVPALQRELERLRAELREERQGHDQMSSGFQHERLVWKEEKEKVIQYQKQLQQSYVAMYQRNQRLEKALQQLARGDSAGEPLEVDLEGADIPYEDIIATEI

Legend:
Experiment in all cases: log2 fold change, soluble protein after heating vs DMSO (PISA); higher = thermal stabilisation; K562 lysate, 10 uM; active = over 0.2 and 3.5 SD of the protein, either way, in both replicates (recomputed)
erlotinib = compound: C#Cc1cccc(Nc2ncnc3cc(OCCOC)c(OCCOC)cc23)c1 [erlotinib]
Summary of the method: (§1)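 Log-two fold change in thermal stability relative to solvent controls is reported from duplicates. For each sample, crude K562 extract from dounce-homogenised pellets in PBS pH 7.4 with 1 mM MgCl2, at 1 mg/mL protein, was treated with 10 μM compound for 30 min. Aliquots heated for 3 min across 48°C-58°C were pooled, brought to 0.5% NP-40 at 4°C and cleared at 21,000xg for 90 min. The supernatant was quantified by TMTpro 16plex LC-MS/MS with channel sums equalised.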

[1] = compound: C/C(=N\NC(=O)C1=CC(=CC=C1)S(=O)(=O)N2CCOCC2)/C3=C(C=CC(=C3)Cl)O
Summary of the method: as §1

[2] = compound: C1=CC(=CC=C1C2=NC3=C(N2)C=C(C=C3)C(=O)N)OC4=CC=C(C=C4)Cl
Summary of the method: as §1

[3] = compound: C1=CC2=C(C=CC(=C2)/C=C\3/C(=O)NC(=NCC4=CC=CS4)S3)N=C1
Summary of the method: as §1

[4] = compound: C1=CC2=NC=CN=C2C=C1/C=C/3\C(=O)NC(=O)S3
Summary of the method: as §1

[5] = compound: C1=CC=C(C=C1)C2=NC(=C(N2)C3=CC=NC=C3)C4=CC(=C(C=C4)Cl)O
Summary of the method: as §1

[6] = compound: C1=CC=C2C(=C1)C3=NNC4=CC=CC(=C43)C2=O
Summary of the method: as §1

[7] = compound: C1CCN(C1)C(=O)NC2=CC=CC(=C2)NC3=NC=C(C(=N3)NCCC4=CN=CN4)Br
Summary of the method: as §1

[8] = compound: C1CN(CCC1(CC2=CC=C(C=C2)Cl)N)C3=NC=NC4=C3C=CN4
Summary of the method: as §1

IRAK-1-4 Inhibitor I = compound: C1COCCN1CCN2C3=CC=CC=C3N=C2NC(=O)C4=CC(=CC=C4)[N+](=O)[O-] [IRAK-1-4 Inhibitor I]
Summary of the method: as §1

Target	log2 fold change (erlotinib)	log2 fold change [1]	log2 fold change [2]	log2 fold change [3]	log2 fold change [4]	log2 fold change [5]	log2 fold change [6]	log2 fold change [7]	log2 fold change [8]	log2 fold change (IRAK-1-4 Inhibitor I)
MADD isoform 4 (UniProt Q8WXG6)	inactive: 0.045	inactive: -0.049	inactive: 0.012	inactive: 0	inactive: -0.046	inactive: 0.005	inactive: -0.052	inactive: -0.015	inactive: -0.01	inactive: 0.002
LYRM2 (UniProt Q9NU23)	inactive: -0.01	inactive: -0.026	inactive: -0.015	inactive: -0.033	inactive: -0.094	inactive: 0.012	inactive: 0.007	inactive: -0.032	inactive: 0.016	inactive: -0.054
MARCKS (UniProt P29966)	inactive: -0.082	inactive: 0.096	inactive: -0.011	inactive: 0.196	inactive: 0.044	inactive: 0.048	inactive: 0.043	inactive: 0.176	inactive: 0.082	inactive: 0.049
MASTL (UniProt Q96GX5)	inactive: -0.089	inactive: -0.05	inactive: -0.027	inactive: 0.079	inactive: 0.076	inactive: -0.005	inactive: -0.167	inactive: 0.007	inactive: -0.072	inactive: 0.018
LTV1 (UniProt Q96GA3)	inactive: -0.004	inactive: -0.113	inactive: -0.005	inactive: -0.008	inactive: -0.002	inactive: 0.005	inactive: -0.006	inactive: 0.013	inactive: 0.014	inactive: -0.057
LYPLA1 (UniProt O75608)	inactive: 0.01	inactive: 0.029	inactive: -0.034	inactive: -0.014	inactive: -0.038	inactive: 0.039	inactive: 0.03	inactive: -0.008	inactive: 0.011	inactive: 0.019
MAN1A2 (UniProt O60476)	inactive: -0.011	inactive: -0.017	inactive: 0.01	inactive: 0.043	inactive: 0.025	inactive: -0.014	inactive: -0.104	inactive: 0.005	inactive: -0.009	inactive: -0.032
MARK1 (UniProt Q9P0L2)	inactive: 0.105	inactive: 0.006	inactive: -0.018	inactive: 0.029	inactive: -0.01	inactive: -0.001	inactive: -0.26	inactive: -0.255	inactive: -0.111	inactive: -0.045
MAP11 (UniProt Q8WVR3)	inactive: 0.013	inactive: -0.018	inactive: -0.009	inactive: 0.006	inactive: 0.061	inactive: -0.004	inactive: 0.064	inactive: -0.135	inactive: 0.02	inactive: -0.02
MAN2A2 (UniProt P49641)	inactive: 0.008	inactive: 0.567	inactive: -0.058	inactive: 0.016	inactive: -0.014	inactive: 0.051	inactive: -0.086	inactive: 0.034	inactive: -0.024	inactive: -0.054
MAPRE2 (UniProt Q15555)	inactive: -0.074	inactive: 0.045	inactive: 0.013	inactive: 0.043	inactive: -0.042	inactive: -0.017	inactive: 0.009	inactive: -0.004	inactive: -0.035	inactive: -0.036
MAD2L1 (UniProt Q13257)	inactive: -0.026	inactive: 0.032	inactive: -0.025	inactive: -0.021	inactive: 0.007	inactive: -0.003	inactive: -0.001	inactive: -0.022	inactive: -0.018	inactive: 0.02
LUC7L (UniProt Q9NQ29)	inactive: -0.024	inactive: 0.021	inactive: -0.097	inactive: 0.015	inactive: -0.067	inactive: -0.023	inactive: 0.01	inactive: -0.02	inactive: -0.004	inactive: -0.026
MAGEB1 (UniProt P43366)	inactive: 0.036	inactive: -0.081	inactive: -0.066	inactive: -0.004	inactive: 0.036	inactive: -0.028	inactive: -0.032	inactive: -0.004	inactive: -0.044	inactive: -0.013
MAPK3 (UniProt P27361)	inactive: 0	inactive: 0.02	inactive: 0	inactive: -0.025	inactive: 0.031	inactive: 0.01	inactive: 0.052	inactive: 0.021	inactive: 0.055	inactive: 0.049
MAP7D3 (UniProt Q8IWC1)	inactive: 0.069	inactive: 0.053	inactive: 0.281	inactive: 0.052	inactive: -0.023	inactive: -0.025	inactive: 0.044	inactive: -0.034	inactive: -0.012	inactive: -0.017
MAP1LC3B2 (UniProt A6NCE7)	inactive: -0.004	inactive: 0.018	inactive: -0.028	inactive: -0.027	inactive: 0.011	inactive: 0.001	inactive: -0.011	inactive: 0.029	inactive: 0.018	inactive: -0.002
MAP3K20 isoform 2 (UniProt Q9NYL2)	inactive: -0.032	inactive: -0.187	inactive: -0.029	inactive: -0.062	inactive: 0.025	inactive: -0.136	inactive: 0.134	inactive: -0.122	inactive: -0.012	inactive: 0.07
MAN2B1 (UniProt O00754)	inactive: 0.009	inactive: -0.018	inactive: -0.009	inactive: -0.004	inactive: -0.026	inactive: 0.007	inactive: -0.034	inactive: -0.01	inactive: -0.045	inactive: 0.039
MAP2K5 (UniProt Q13163)	inactive: 0.16	inactive: 0.153	inactive: -0.024	inactive: 0.142	inactive: -0.097	inactive: -0.015	inactive: 0.06	inactive: -0.007	inactive: -0.024	inactive: 0.144
MARK2 (UniProt E9PC69)	inactive: 0.095	inactive: 0.132	inactive: 0.026	inactive: 0.056	inactive: -0.017	inactive: 0.024	inactive: -0.246	inactive: -0.18	inactive: -0.084	inactive: -0.076
MAGOHB (UniProt Q96A72)	inactive: 0.001	inactive: 0.012	inactive: 0.011	inactive: -0.014	inactive: -0.014	inactive: -0.018	inactive: -0.002	inactive: -0.002	inactive: 0.03	inactive: 0
LYSMD3 (UniProt Q7Z3D4)	inactive: -0.067	inactive: -0.051	inactive: 0.044	inactive: 0.069	inactive: 0.05	inactive: 0.007	inactive: -0.11	inactive: 0.037	inactive: 0	inactive: -0.01
MARCKSL1 (UniProt P49006)	inactive: -0.062	inactive: -0.028	inactive: -0.121	inactive: -0.01	inactive: 0	inactive: 0.051	inactive: 0.187	inactive: 0.091	inactive: 0.019	inactive: -0.044
MAPKAPK5 (UniProt Q8IW41)	inactive: -0.058	inactive: -0.045	inactive: 0.016	inactive: 0.12	inactive: 0.007	inactive: -0.024	active: 0.276	inactive: 0.035	inactive: 0.031	inactive: -0.049
LUZP1 (UniProt Q86V48)	inactive: -0.074	inactive: -0.06	inactive: -0.033	inactive: 0.027	inactive: -0.028	inactive: -0.009	inactive: 0.031	inactive: -0.009	inactive: 0.009	inactive: 0.085
MANF (UniProt P55145)	inactive: -0.004	inactive: 0.05	inactive: -0.013	inactive: 0.029	inactive: 0	inactive: -0.004	inactive: 0.045	inactive: 0.014	inactive: -0.032	inactive: 0.029
LZTS1 (UniProt Q9Y250)	inactive: 0.182	inactive: 0.832	inactive: 0.291	inactive: -0.011	inactive: -0.12	inactive: 0.113	inactive: -0.075	inactive: -0.2	inactive: -0.07	inactive: 0.055
MAP2K7 isoform 4 (UniProt O14733)	inactive: -0.042	inactive: -0.034	inactive: 0.037	inactive: 0.091	inactive: 0.241	inactive: 0.044	active: 0.586	inactive: -0.106	inactive: 0.078	inactive: -0.123
MACROD1 (UniProt Q9BQ69)	inactive: 0.025	inactive: 0.017	inactive: 0.009	inactive: 0.02	inactive: 0.283	inactive: -0.005	inactive: -0.074	inactive: 0.131	inactive: -0.002	inactive: 0.081

In another format: results already given.
Target,log2 fold change (erlotinib),log2 fold change [1],log2 fold change [2],log2 fold change [3],log2 fold change [4],log2 fold change [5],log2 fold change [6],log2 fold change [7],log2 fold change [8],log2 fold change (IRAK-1-4 Inhibitor I)
LZTS1 (UniProt Q9Y250),inactive: 0.182,inactive: 0.832,inactive: 0.291,inactive: -0.011,inactive: -0.12,inactive: 0.113,inactive: -0.075,inactive: -0.2,inactive: -0.07,inactive: 0.055
MAP2K7 isoform 4 (UniProt O14733),inactive: -0.042,inactive: -0.034,inactive: 0.037,inactive: 0.091,inactive: 0.241,inactive: 0.044,active: 0.586,inactive: -0.106,inactive: 0.078,inactive: -0.123
